Measurements reported in PubChem BioAssay AID652272 (Drosophila RNAi Screening Center, 2013).
The deposit covers about 21,000 reagents; this is a random part of those that have a named target and a result. Of all reagents, 503 (2.4%) are marked active. 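Raw plate light values, not normalised; calls rest on replicate z-scores that were not deposited; hits include reporter decreases as well as increases.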 Names joined by + are all predicted targets of the reagent. Not given: the amount of reagent, the time to read-out.

- Test: 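Genes whose knock-down decreases or increases Hedgehog reporter output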 (primary screen)
- Cells: Drosophila clone 8 (Cl8) cells
- Reagents: long dsRNA against Drosophila genes
- Detection: 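Plate reader light from a firefly reporter under a ptc promoter fragment that responds to Hedgehog, with Renilla light as transfection reference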
- Scale: firefly Hh reporter signal: higher = more ptc reporter light; Renilla reference signal: higher = more Renilla control light
- Hit rule: 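Hit when the z-score averaged over two replicates is under -2 or over +3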
- Calls: active = hit: reporter lowered or raised; inactive = not a hit

| predicted target | dsRNA | firefly Hh reporter signal, replicate 1 | firefly Hh reporter signal, replicate 2 | firefly Hh reporter signal, replicate 3 | Renilla reference signal, replicate 1 | Renilla reference signal, replicate 2 | Call |
| --- | --- | --- | --- | --- | --- | --- | --- |
| Prosbeta5R2 (GeneID 318924) | DRSC01617 | 1.16e5 | 1.91e5 | – | 3192 | 9740 | inactive |
| CTCF (GeneID 38817) | DRSC11004 | 1.06e5 | 47316 | – | 3312 | 1760 | inactive |
| Xpd (GeneID 37414) | DRSC04666 | 84711 | 71576 | – | 3043 | 2667 | inactive |
| CG31606 (GeneID 318842) | DRSC01012 | 4.18e5 | 1.51e5 | – | 21906 | 6347 | inactive |
| CG7054 (GeneID 42643) | DRSC16185 | 1.44e5 | 92186 | – | 6172 | 4340 | inactive |
| SNRPG (GeneID 32636) | DRSC20207 | 88019 | 1.38e5 | – | 3588 | 6211 | inactive |
| CG13168 (GeneID 36327) | DRSC06295 | 66644 | 44064 | – | 1677 | 3553 | inactive |
| mRpS18C (GeneID 43609) | DRSC16538 | 68304 | 83623 | – | 1648 | 2408 | inactive |
| CG11034 (GeneID 33810) | DRSC02121 | 1.08e5 | 60640 | – | 3013 | 5747 | inactive |
| CG11034 (GeneID 33810) | DRSC02122 | 85466 | 44356 | – | 2601 | 4288 | inactive |
| CG10560 (GeneID 43065) | DRSC14256 | 5.65e5 | 99948 | – | 37284 | 2794 | inactive |
| GatA (GeneID 42283) | DRSC16956 | 1.56e5 | 74545 | – | 6315 | 3286 | inactive |
| dsx-c73A (GeneID 39831) | DRSC09435 | 2.08e5 | – | – | 4944 | – | inactive |
| dsx-c73A (GeneID 39831) | DRSC09914 | 88057 | – | – | 5723 | 2644 | inactive |
| dsx-c73A (GeneID 39831) | DRSC10429 | 1.60e5 | – | – | 5826 | 4733 | inactive |
| CG4213 (GeneID 33209) | DRSC00641 | 1.57e5 | 1.00e5 | – | 4048 | 2173 | inactive |
| ft (GeneID 33627) | DRSC00819 | 1.19e5 | 1.03e5 | – | 5387 | 3938 | inactive |
| Evi5 (GeneID 32088) | DRSC19421 | 63120 | 2.97e5 | – | 2576 | 10069 | inactive |
| ArfGAP1 (GeneID 39417) | DRSC11173 | 56810 | 35335 | 27587 | 2231 | 1929 | inactive |
| tko (GeneID 31228) | DRSC18844 | 66168 | 2.71e5 | – | 2297 | 8363 | inactive |
| RpL12 (GeneID 45329) | DRSC04344 | 30278 | 23085 | – | 1340 | 3177 | active |
| Vha100-3 (GeneID 246543) | DRSC05760 | 92122 | 1.67e5 | – | 2661 | 7050 | inactive |
| park + Targ3 | DRSC11617 | 1.88e5 | 1.06e5 | – | 7797 | 4272 | inactive |
| w (GeneID 31271) | DRSC17233 | 6.74e5 | 3.58e5 | – | 37014 | 7810 | inactive |
| w (GeneID 31271) | DRSC18850 | 72592 | 1.36e5 | – | 2644 | 6202 | inactive |
| Oatp33Ea (GeneID 34660) | DRSC02859 | 48259 | 19024 | – | 3344 | 1749 | active |

Just “Renilla reference signal, replicate 2” (6 entries from above):
tko (GeneID 31228) [DRSC18844]: 8363
RpL12 (GeneID 45329) [DRSC04344]: 3177
Vha100-3 (GeneID 246543) [DRSC05760]: 7050
park + Targ3 [DRSC11617]: 4272
w (GeneID 31271) [DRSC17233]: 7810
w (GeneID 31271) [DRSC18850]: 6202

Continued:
| predicted target | dsRNA | firefly Hh reporter signal, replicate 1 | firefly Hh reporter signal, replicate 2 | firefly Hh reporter signal, replicate 3 | Renilla reference signal, replicate 1 | Renilla reference signal, replicate 2 | Call |
| --- | --- | --- | --- | --- | --- | --- | --- |
| Mco3 (GeneID 43134) | DRSC15926 | 6.31e5 | 1.35e5 | – | 32358 | 3664 | inactive |
| l(2)k09022 (GeneID 33960) | DRSC02108 | 73688 | 68291 | – | 3864 | 3733 | inactive |
| Or43a (GeneID 35644) | DRSC07485 | 89709 | 45370 | – | 2402 | 3847 | inactive |
| Pfdn5 (GeneID 42647) | DRSC16183 | 1.68e5 | 1.18e5 | – | 6212 | 5363 | inactive |
| Bcat (GeneID 32297) | DRSC19756 | 77772 | 2.40e5 | – | 2262 | 9417 | inactive |
| CG9568 (GeneID 34227) | DRSC03265 | 1.15e5 | 4.47e5 | 67607 | 2978 | 26960 | inactive |
| Isha (GeneID 37411) | DRSC04456 | 75171 | 47568 | – | 2876 | 2277 | inactive |
| CG6142 (GeneID 43178) | DRSC15976 | 5.67e5 | 1.37e5 | – | 27964 | 4068 | inactive |
| oys (GeneID 36045) | DRSC05203 | 61738 | 1.33e5 | – | 1665 | 6506 | inactive |
| oys (GeneID 36045) | DRSC06751 | 72388 | 53914 | – | 2794 | 2001 | inactive |
| PPO3 (GeneID 44513) | DRSC04325 | 1.07e5 | 47250 | – | 4104 | 2029 | inactive |
| Or65a (GeneID 318011) | DRSC08808 | 93184 | 1.70e5 | – | 2889 | 7600 | inactive |
| Polr3D (GeneID 40002) | DRSC10485 | 66886 | 37177 | – | 3126 | 1504 | inactive |
| sba (GeneID 42824) | DRSC13643 | 47328 | 93776 | – | 11627 | 2387 | inactive |
| sba (GeneID 42824) | DRSC17050 | 4.05e5 | 5.59e5 | 79107 | 20806 | 3140 | inactive |
| CG31921 (GeneID 319027) | DRSC00013 | 6.48e5 | 3.04e5 | – | 34162 | 11492 | inactive |
| CG16753 (GeneID 38365) | DRSC08489 | 1.45e5 | 84885 | – | 4613 | 2758 | inactive |
| Trm7-32 (GeneID 42056) | DRSC15741 | 1.21e5 | 90360 | – | 4896 | 4145 | inactive |
| CG14764 (GeneID 35749) | DRSC05072 | 83366 | 2.07e5 | – | 10162 | 9388 | inactive |
| CG14764 (GeneID 35749) | DRSC06498 | 89046 | 67141 | – | 4723 | 3280 | inactive |
| CG14764 (GeneID 35749) | DRSC06844 | 67673 | 50059 | – | 1629 | 4499 | inactive |
| CG34263 (GeneID 5740488) | DRSC07866 | 1.76e5 | 3.21e5 | – | 5376 | 14397 | inactive |
| CG12531 (GeneID 32986) | DRSC19466 | 59101 | 4.10e5 | – | 1120 | 14761 | inactive |
| CG32302 (GeneID 38293) | DRSC08340 | 49232 | 45357 | – | 1812 | 3464 | inactive |
| CG14883 (GeneID 41997) | DRSC15007 | 80474 | 72667 | – | 2848 | 1924 | inactive |
| CG10984 (GeneID 39446) | DRSC09817 | 89344 | 73067 | – | 4249 | 3680 | inactive |
| CanB2 (GeneID 46456) | DRSC07355 | 7.21e5 | 1.30e5 | – | 5665 | 5665 | inactive |
| CG5107 (GeneID 43084) | DRSC15716 | 76976 | 68099 | – | 1760 | 1824 | inactive |
| Rbp9 (GeneID 33498) | DRSC00416 | 92883 | 71380 | – | 1579 | 6650 | inactive |
| Rbp9 (GeneID 33498) | DRSC00779 | 53821 | 38007 | – | 3003 | 1979 | inactive |
| Phb2 (GeneID 46038) | DRSC06512 | 4.85e5 | 73145 | – | 3180 | 3180 | inactive |
